# From patent publication US12421242B2, “Substituted tetrahydropyrrolo-pyridinone compounds and their use in treating medical conditions” (Karuna Therapeutics, Inc., priority 2022, dated 2025)
# By UniProt entry, the sequences of proteins in these tests, tags left out.
# UniProt P08485, whole entry: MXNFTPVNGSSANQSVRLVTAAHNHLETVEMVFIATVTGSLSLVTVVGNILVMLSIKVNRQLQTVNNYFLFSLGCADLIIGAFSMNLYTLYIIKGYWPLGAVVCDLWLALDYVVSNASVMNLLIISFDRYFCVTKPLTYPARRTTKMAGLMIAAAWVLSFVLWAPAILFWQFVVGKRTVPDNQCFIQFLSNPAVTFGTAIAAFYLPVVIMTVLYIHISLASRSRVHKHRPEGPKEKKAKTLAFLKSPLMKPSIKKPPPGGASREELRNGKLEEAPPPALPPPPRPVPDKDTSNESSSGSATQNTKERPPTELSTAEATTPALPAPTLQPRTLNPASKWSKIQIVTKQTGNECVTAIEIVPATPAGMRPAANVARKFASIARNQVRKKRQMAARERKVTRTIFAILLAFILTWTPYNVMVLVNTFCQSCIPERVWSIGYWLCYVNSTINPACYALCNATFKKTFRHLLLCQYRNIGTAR
# UniProt P08173, whole entry: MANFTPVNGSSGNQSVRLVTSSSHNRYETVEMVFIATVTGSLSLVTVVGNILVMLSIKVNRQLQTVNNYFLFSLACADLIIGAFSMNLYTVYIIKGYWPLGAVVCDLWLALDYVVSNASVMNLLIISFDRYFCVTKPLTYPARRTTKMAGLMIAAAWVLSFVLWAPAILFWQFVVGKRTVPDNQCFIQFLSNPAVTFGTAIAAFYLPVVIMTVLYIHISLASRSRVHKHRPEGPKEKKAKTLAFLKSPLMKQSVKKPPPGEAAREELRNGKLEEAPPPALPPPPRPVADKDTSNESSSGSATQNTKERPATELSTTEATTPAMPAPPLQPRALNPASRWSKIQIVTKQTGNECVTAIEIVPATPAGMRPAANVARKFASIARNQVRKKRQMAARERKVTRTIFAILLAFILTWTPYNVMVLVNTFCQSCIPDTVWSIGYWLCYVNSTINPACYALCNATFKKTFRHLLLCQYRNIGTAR
# Assays:
# rM4 receptors = rM4 receptors (Rattus norvegicus, UniProt P08485); experiment: Rat M4 PAM pERK assay; settings: read-out: Rat M4 PAM pERK EC50, PAM mode
# Description: (§1) Chinese hamster ovary (CHO) cells expressing either hM4 or rM4 receptors were frozen in assay ready vials (5×10^6 cells/vial) after bulking-up in culture. The day before an assay, vial(s) were thawed and cells seeded in 384 well white proxiplates at 1000/well for hM4 cells and at 2000/well for rM4 cells, in 10 μL of growth media (Hams/F12 with glutamax and 10% FCS) and incubated overnight at 37° C./5% CO2.
# (§2) On the following morning, the growth media was removed by ‘flicking out’ over a bin, patting the inverted plate onto tissue, and then replacing with 10 μL of wash media (Hams/F12 with glutamax and 8 mM HEPES, NB: serum free). Then, the wash media was removed in the same way and replaced with 8 μL/well of the serum free media. Plates were then re-incubated for a further 4 hours at 37° C./5% CO2. […]
# (§3) After the 4-hour incubation in serum free media, a 4 μL aliquot of the 3× compound solution containing an EC20 of acetylcholine (10 nM final concentration) was added to the cell plate using a 384 well plate to plate transfer. […] Then, a final addition of 4 μL/well of antibody detection mix, containing both the Europium-Cryptate (donor) and d2 (acceptor) tagged detection components, was added followed by a further 2-hour incubation at RT, and then the plate was read using a TR-FRET (time resolved fluorescence resonance energy transfer) based protocol.
# hM4 receptors = hM4 receptors (Homo sapiens, UniProt P08173); experiment: Human M4 PAM pERK assay; settings: read-out: Human M4 PAM pERK EC50, PAM mode
# Description: as §1, §2, §3
smiles,measurement,setting,value
Cc1cc(=O)n(C)c2c1CN(C(=O)c1cnn(C)c1)C2,EC50,rM4 receptors,> 2000 nM
same,EC50,hM4 receptors,100 to 500 nM

# The structures given here were assigned with low confidence; some may be wrong.
